{
  "source": "PubChem BioAssay AID540276",
  "about": "(National Center for Advancing Translational Sciences (NCATS), 2011)",
  "note": "Where “and” joins values, the source holds several entries; their conditions need not be identical. Identical values can stand only once. Hit rate of the full screen: of about 300,000 compounds, about 5,400 (1.8%) were called active. The inconclusive results got no clear call from the source; some entries with a clear call stand among them for comparison. Calls come from the whole dose curve; tested in HEK293 cells. Potencies of inconclusive entries are doubtful fits and often do not repeat. % is set by controls: 0 for no effect and ±100 for the full control effect; potency is the fitted concentration of half-maximal effect.",
  "data": [
    {"test": "qHTS for inhibitors of binding or entry into cells for Marburg Virus", "conditions": "Marburg virus pseudotyped entry inhibition, cell reporter; activity change, negative = inhibition: at 37.8 µM (top of the series) unless noted", "values": [
      {"smiles": "O=c1oc2ccccc2c2c1[C@H]1O[C@](c3ccsc3)(Cc3ccccc31)O2", "Potency": "inconclusive: 0.841 µM [activator, single point]"},
      {"smiles": "COc1ccc2nc(SCC(=O)Nc3ccc4sc(C)nc4c3)c(C#N)cc2c1", "Potency": "inconclusive: 16.4 µM [inhibitor, single point]"},
      {"smiles": "CC(C)C(=O)N1CCc2cc(-c3csc(N)n3)ccc21", "Potency": "inconclusive: 6.51 µM [inhibitor, full curve, poor fit]"},
      {"smiles": "CC/C(=N/Nc1cccc(C)c1)c1cnnc(SC)n1", "Potency": "inconclusive: 20 µM [inhibitor, partial curve, poor fit]"},
      {"smiles": "Cc1ccc(S(=O)(=O)N(C)c2ccc(OC(=O)c3ccc(N4CCCC4=O)cc3)cc2)cc1", "activity change, negative = inhibition": "inactive: -1.55%"},
      {"smiles": "Cc1cc(NC(=O)CCN2CCN(C)CC2)ccc1Br", "Potency": "inconclusive: 22.4 µM [inhibitor, single point]"},
      {"smiles": "COc1ccc(C)cc1NC(=O)CN1C(=O)COc2ccc(S(=O)(=O)N3CCC(C)CC3)cc21", "Potency": "inconclusive: 31.6 µM [inhibitor, single point]"},
      {"smiles": "O=C(Nc1ccc(F)cc1)N(Cc1ccco1)Cc1cc2cc3c(cc2[nH]c1=O)OCO3", "Potency": "active: 17.8 µM"},
      {"smiles": "COc1ccc2nc(NC(=O)CN3CCN(C)CC3)sc2c1", "activity change, negative = inhibition": "inactive: 2.94%"},
      {"smiles": "O=C(Cc1ccccc1)NCC(=O)Nc1ccc(OC(F)(F)F)cc1", "activity change, negative = inhibition": "inactive: -7.6% [at 46.1 µM]"},
      {"smiles": "CCOC(=O)C(=O)/C(C#N)=C/Nc1ccccc1", "activity change, negative = inhibition": "inactive: 19.4%"},
      {"smiles": "COc1ccc(NS(=O)(=O)c2ccc(Oc3c(C#N)cccc3C#N)cc2)cc1", "Potency": "active: 2.82 µM"},
      {"smiles": "COC(=O)c1c(C)[nH]c(C)c1C(=O)c1ccccc1Cc1ccccc1", "Potency": "inconclusive: 0.0708 µM [inhibitor, full curve, poor fit]"},
      {"smiles": "CC1(C)CC(N2CCCCC2)=CC(=[N+]2CCCCC2)C1", "Potency": "inconclusive: 15.8 µM [inhibitor, partial curve, poor fit]"},
      {"smiles": "Cc1ccccc1NC(=O)C1CCC(C)(C(=O)O)C1(C)C", "note": "(centres undefined)", "Potency": "inconclusive: 14.1 µM [activator, single point]"},
      {"smiles": "Cc1ccccc1NC(=O)c1ccc(Nc2c([N+](=O)[O-])cc([N+](=O)[O-])c3ccccc23)cc1", "Potency": "inconclusive: 14.1 µM [inhibitor, single point]"},
      {"smiles": "O=C(N/N=C/c1cccs1)c1ccc2ccccc2c1", "Potency": "inconclusive: 10 µM [inhibitor, partial curve, poor fit]"},
      {"smiles": "CCCCNC(=O)c1ccc(SCC(=O)N(CC)CC)c([N+](=O)[O-])c1", "activity change, negative = inhibition": "inactive: 1.91%"},
      {"smiles": "CCN(Cc1ccccc1)C(=O)CN1C(=O)NC2(CC(C)CC(C)(C)C2)C1=O", "note": "(centres undefined)", "Potency": "inconclusive: 3.16 µM [activator, single point]"},
      {"smiles": "CCOC(=O)CC(NC(=O)c1cccc2c1C(=O)N(Cc1cccnc1)C2)c1ccc(OCC)c(OC)c1", "note": "(centres undefined)", "activity change, negative = inhibition": "inactive: -7.11% [at 46.1 µM]"},
      {"smiles": "CCOc1ccc(Oc2nc(Nc3ccc(C)cc3)nc(N(C)C)n2)nn1", "Potency": "inconclusive: 35.5 µM [inhibitor, single point]"},
      {"smiles": "O=C(Nc1ccc(F)cc1)N1CCN2C(=O)c3ccccc3C12c1ccccc1", "note": "(centres undefined)", "activity change, negative = inhibition": "inactive: -18%"},
      {"smiles": "CCOC(=O)c1ccc(N2CCN(c3cc(C)ccc3C)CC2)c(N)c1", "Potency": "inconclusive: 35.5 µM [inhibitor, partial curve, poor fit]"},
      {"smiles": "CCCCOc1ccc(-c2nnn(CC(=O)Nc3ncc(CC(=O)OCC)s3)n2)cc1", "Potency": "inconclusive: 35.5 µM [activator, single point]"},
      {"smiles": "COc1cc(/C=N/NC(=O)Nc2ccccc2)ccc1OC(C)=O", "Potency": "inconclusive: 2.24 µM [activator, partial curve, poor fit]"},
      {"smiles": "Cc1ccn2cc(-c3cccc([N+](=O)[O-])c3)nc2c1", "Potency": "inconclusive: 11.2 µM [inhibitor, single point]"},
      {"smiles": "Cc1cc(C)c(C)c(S(=O)(=O)N2CCC(C(=O)Nc3ccncc3)CC2)c1C", "Potency": "inconclusive: 35.5 µM [inhibitor, single point]"},
      {"smiles": "O=C(Nc1ccccc1)Oc1ccccc1N1CCOCC1", "activity change, negative = inhibition": "inactive: 39.5% [at 46.1 µM]"},
      {"smiles": "O=C(CCOc1ccccc1)Nc1ccc(Br)cc1", "Potency": "inconclusive: 35.5 µM [activator, single point]"},
      {"smiles": "O=c1[nH]c(C(F)(F)C(F)(F)C(F)(F)F)no1", "activity change, negative = inhibition": "inactive: 19.9%"},
      {"smiles": "Cc1ccc(C(=O)N2CCSC2=S)cc1", "Potency": "inconclusive: 5.62 µM [inhibitor, single point]"},
      {"smiles": "CCCCc1ccc(NC(=O)CSC2=C(C#N)C(c3ccco3)C3=C(CCCC3=O)N2)cc1", "note": "(centres undefined)", "Potency": "inactive and inconclusive: 10 µM [inhibitor, partial curve]"},
      {"smiles": "Cc1ccc(OCCCC(=O)Nc2cc(Cl)ccc2-n2cncn2)cc1", "Potency": "inconclusive: 5.01 µM [inhibitor, single point]"},
      {"smiles": "Cc1ccc2nc(N(CCN(C)C)C(=O)c3ccc4ccccc4c3)sc2c1", "activity change, negative = inhibition": "inactive: 10.7% [at 46.1 µM]"},
      {"smiles": "c1ccc(CC(Nc2ccccn2)c2ccccc2)cc1", "note": "(centres undefined)", "Potency": "inconclusive: 35.5 µM [inhibitor, single point]"},
      {"smiles": "COc1ccc(/C=N/NC(=O)CSc2n[nH]c(=O)[nH]c2=O)cc1", "Potency": "inconclusive: 5.01 µM [inhibitor, single point]"},
      {"smiles": "COc1ccc(-c2nc3cccc(C)n3c2NCc2ccco2)cc1OC", "Potency": "inconclusive: 22.4 µM [inhibitor, single point]"},
      {"smiles": "Cc1ccc(OCCOCCn2c(-c3ccc(Cl)cc3)nc3ccccc3c2=O)cc1", "activity change, negative = inhibition": "inactive: 2.17% [at 46.1 µM]"},
      {"smiles": "COc1cccc(CNC(=O)CCc2c(C)c3ccc(O)c(C)c3oc2=O)c1", "activity change, negative = inhibition": "inconclusive: 6.93% [activator] [at 46.1 µM]"},
      {"smiles": "COC(=O)CN(C)C(=O)c1ccc(OC2CCN(S(=O)(=O)N(C)C)CC2)cc1", "activity change, negative = inhibition": "inactive: 1.78%"},
      {"smiles": "COc1ccccc1CN(Cc1cc2cc(C)cc(C)c2[nH]c1=O)Cc1nnnn1CC1CCCO1", "note": "(centres undefined)", "Potency": "active: 10.3 µM"},
      {"smiles": "O=C(NCCN1CCOCC1)c1cccnc1SCc1ccccc1Cl", "Potency": "inconclusive: 1.12 µM [inhibitor, partial curve, poor fit]"},
      {"smiles": "CCC(C)NS(=O)(=O)c1ccc(NC(=O)Cc2ccc(OC)cc2)cc1", "note": "(centres undefined)", "Potency": "inconclusive: 35.5 µM [inhibitor, single point]"},
      {"smiles": "CCCc1[nH]nc2c1C(C1CC=CCC1)C(C#N)=C(N)O2", "note": "(centres undefined)", "Potency": "inconclusive: 4.47 µM [activator, single point]"}
    ]}
  ]
}
